# Assay results from the supplement of paper PMC8728848.
# The other results are listed elsewhere or left out.
# B1: SP15308B-bot-339-22-339 (Bacteroides ovatus) (protein)
# chain: NEWEDEQYEQYVSFKAPIASGSDGVTTIYVRYKDNGKVTYQLPIIVSGSTVNSQDRDIHIAVDKDTLKTLNIERFSLYRPELWYTEMEEDKYEFPETVHIPAGSCVELLNIDFNLQDIDMLEKWVLPLTIVDDGSYAYQSHPRKNYAKALLKVVPFNNYSGSYTASSMKVYTYINGKPDTNARTTDKRTGYVVDNNSIFFYAGLINEDMDKDMRKKYKINVHFKEDGTLDMKQDDPSNEMEFELIGTPTYSSTSVMDATRPYLERRYVQIMFEYDFQDFTYGGSGTEVIPIKYRVAGSMTLLRNINTQIPDEDQQIEW
# Tests used:
# Assay in all cases: glycan array binding signal (z-score within array); higher = stronger binding
# Details in all cases: glycan notation: IUPAC condensed, linker removed
# [1] = biological target: Gal(b1-4)GlcNAc(b1-3)Gal(b1-4)GlcNAc(b1-3)Gal(b1-4)GlcNAc(b1-3)Gal(b1-4)GlcNAc(b1-2)Man(a1-3)[Gal(b1-4)GlcNAc(b1-3)Gal(b1-4)GlcNAc(b1-3)Gal(b1-4)GlcNAc(b1-3)Gal(b1-4)GlcNAc(b1-2)Man(a1-6)]Man(b1-4)GlcNAc(b1-4)GlcNAc
# Method in brief: (§1)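 Negative Z-scores can be read as non-binding. The Z-score is calculated within each array and then averaged across arrays of one protein sequence at different concentrations or buffers and across linkers. Arrays, 3228 in all, were curated from the Consortium for Functional Glycomics database and kept only where the protein sequence was available.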
# [2] = biological target: Gal(b1-4)GlcNAc(b1-3)Gal(b1-4)GlcNAc(b1-3)Gal(b1-4)GlcNAc(b1-3)Gal(b1-4)GlcNAc(b1-2)Man(a1-3)[Gal(b1-4)GlcNAc(b1-3)Gal(b1-4)GlcNAc(b1-3)Gal(b1-4)GlcNAc(b1-3)Gal(b1-4)GlcNAc(b1-2)Man(a1-6)]Man(b1-4)GlcNAc(b1-4)[Fuc(a1-6)]GlcNAc
# Method in brief: as §1
# [3] = biological target: Gal(b1-4)GlcNAc(b1-3)Gal(b1-4)GlcNAc(b1-3)Gal(b1-4)GlcNAc(b1-3)Gal(b1-4)GlcNAc(b1-2)[Gal(b1-4)GlcNAc(b1-3)Gal(b1-4)GlcNAc(b1-3)Gal(b1-4)GlcNAc(b1-3)Gal(b1-4)GlcNAc(b1-6)]Man(a1-6)[Gal(b1-4)GlcNAc(b1-3)Gal(b1-4)GlcNAc(b1-3)Gal(b1-4)GlcNAc(b1-3)Gal(b1-4)GlcNAc(b1-2)Man(a1-3)]Man(b1-4)GlcNAc(b1-4)[Fuc(a1-6)]GlcNAc
# Method in brief: as §1
# [4] = biological target: Gal(b1-4)GlcNAc(b1-3)Gal(b1-4)GlcNAc(b1-3)Gal(b1-4)GlcNAc(b1-3)Gal(b1-4)GlcNAc(b1-3)Gal(b1-4)GlcNAc(b1-2)Man(a1-3)[Gal(b1-4)GlcNAc(b1-3)Gal(b1-4)GlcNAc(b1-3)Gal(b1-4)GlcNAc(b1-3)Gal(b1-4)GlcNAc(b1-3)Gal(b1-4)GlcNAc(b1-2)Man(a1-6)]Man(b1-4)GlcNAc(b1-4)GlcNAc
# Method in brief: as §1
# [5] = biological target: Gal(b1-4)GlcNAc(b1-3)Gal(b1-4)GlcNAc(b1-3)Gal(b1-4)GlcNAc(b1-3)Gal(b1-4)GlcNAc(b1-3)Gal(b1-4)GlcNAc(b1-2)Man(a1-3)[Gal(b1-4)GlcNAc(b1-3)Gal(b1-4)GlcNAc(b1-3)Gal(b1-4)GlcNAc(b1-3)Gal(b1-4)GlcNAc(b1-3)Gal(b1-4)GlcNAc(b1-2)Man(a1-6)]Man(b1-4)GlcNAc(b1-4)[Fuc(a1-6)]GlcNAc
# Method in brief: as §1
# [6] = biological target: Gal(b1-4)GlcNAc(b1-3)Gal(b1-4)GlcNAc(b1-3)Gal(b1-4)GlcNAc(b1-3)Gal(b1-4)GlcNAc(b1-3)Gal(b1-4)GlcNAc(b1-2)[Gal(b1-4)GlcNAc(b1-3)Gal(b1-4)GlcNAc(b1-3)Gal(b1-4)GlcNAc(b1-3)Gal(b1-4)GlcNAc(b1-3)Gal(b1-4)GlcNAc(b1-6)]Man(a1-6)[Gal(b1-4)GlcNAc(b1-3)Gal(b1-4)GlcNAc(b1-3)Gal(b1-4)GlcNAc(b1-3)Gal(b1-4)GlcNAc(b1-3)Gal(b1-4)GlcNAc(b1-2)Man(a1-3)]Man(b1-4)GlcNAc(b1-4)[Fuc(a1-6)]GlcNAc
# Method in brief: as §1
# [7] = biological target: Gal(b1-4)GlcNAc(b1-3)Gal(b1-4)GlcNAc(b1-3)Gal(b1-4)GlcNAc(b1-3)Gal(b1-4)GlcNAc(b1-3)Gal(b1-4)GlcNAc(b1-3)Gal(b1-4)GlcNAc(b1-2)Man(a1-3)[Gal(b1-4)GlcNAc(b1-3)Gal(b1-4)GlcNAc(b1-3)Gal(b1-4)GlcNAc(b1-3)Gal(b1-4)GlcNAc(b1-3)Gal(b1-4)GlcNAc(b1-3)Gal(b1-4)GlcNAc(b1-2)Man(a1-6)]Man(b1-4)GlcNAc(b1-4)GlcNAc
# Method in brief: as §1
# [8] = biological target: Gal(b1-4)GlcNAc(b1-3)Gal(b1-4)GlcNAc(b1-3)GalNAc
# Method in brief: as §1
# [9] = biological target: Gal(b1-4)GlcNAc(b1-3)Gal(b1-4)GlcNAc(b1-3)[Gal(b1-4)GlcNAc(b1-3)Gal(b1-4)GlcNAc(b1-6)]GalNAc
# Method in brief: as §1
# [10] = biological target: Gal(b1-4)GlcNAc(b1-3)Gal(b1-4)GlcNAc(b1-6)[Gal(b1-3)]GalNAc
# Method in brief: as §1
# [11] = biological target: Gal(b1-4)GlcNAc(b1-3)Gal(b1-4)[Fuc(a1-3)]GlcNAc(b1-3)Gal(b1-4)[Fuc(a1-3)]GlcNAc
# Method in brief: as §1
# [12] = biological target: Gal(b1-4)GlcNAc(b1-3)GalNAc
# Method in brief: as §1
# [13] = biological target: Gal(b1-4)GlcNAc(b1-3)[Fuc(a1-3)GlcNAc(b1-6)]Gal(b1-4)Glc
# Method in brief: as §1
# [14] = biological target: Gal(b1-4)GlcNAc(b1-3)[Gal(b1-4)GlcNAc(b1-6)]Gal(b1-4)GlcNAc
# Method in brief: as §1
# [15] = biological target: Gal(b1-4)GlcNAc(b1-3)[GlcNAc(b1-6)]Gal(b1-4)GlcNAc
# Method in brief: as §1
# [16] = biological target: Gal(b1-4)GlcNAc(b1-6)Gal(b1-4)GlcNAc
# Method in brief: as §1
# [17] = biological target: Gal(b1-4)GlcNAc(b1-6)GalNAc
# Method in brief: as §1
# [18] = biological target: Gal(b1-4)GlcNAc(b1-6)[Gal(b1-3)]GalNAc
# Method in brief: as §1
# [19] = biological target: Gal(b1-4)GlcNAc(b1-6)[Gal(b1-4)GlcNAc(b1-3)]GalNAc
# Method in brief: as §1
# Gal(b1-4)GlcNAc6P = biological target: Gal(b1-4)GlcNAc6P
# Method in brief: as §1
# Gal(b1-6)Gal = biological target: Gal(b1-6)Gal
# Method in brief: as §1
# Gal3S(b1-3)GalNAc = biological target: Gal3S(b1-3)GalNAc
# Method in brief: as §1
# Gal3S(b1-3)GlcNAc = biological target: Gal3S(b1-3)GlcNAc
# Method in brief: as §1
# [20] = biological target: Gal3S(b1-3)[Fuc(a1-4)]GlcNAc
# Method in brief: as §1
# Gal3S(b1-4)Glc = biological target: Gal3S(b1-4)Glc
# Method in brief: as §1
# Gal3S(b1-4)Glc6S = biological target: Gal3S(b1-4)Glc6S
# Method in brief: as §1
# Gal3S(b1-4)GlcNAc = biological target: Gal3S(b1-4)GlcNAc
# Method in brief: as §1
# [21] = biological target: Gal3S(b1-4)[Fuc(a1-3)]Glc6S
# Method in brief: as §1
# [22] = biological target: Gal3S(b1-4)[Fuc(a1-3)]GlcNAc
# Method in brief: as §1
# [23] = biological target: Gal3S(b1-4)[Fuc(a1-3)]GlcNAc6S
# Method in brief: as §1
# Gal3S4S(b1-4)GlcNAc = biological target: Gal3S4S(b1-4)GlcNAc
# Method in brief: as §1
# Gal3S6S(b1-4)GlcNAc = biological target: Gal3S6S(b1-4)GlcNAc
# Method in brief: as §1
# Gal3S6S(b1-4)GlcNAc6S = biological target: Gal3S6S(b1-4)GlcNAc6S
# Method in brief: as §1
# Gal4S(b1-4)GlcNAc = biological target: Gal4S(b1-4)GlcNAc
# Method in brief: as §1
# Gal4S6S(b1-4)GlcNAc = biological target: Gal4S6S(b1-4)GlcNAc
# Method in brief: as §1
# Gal6P(b1-4)GlcNAc = biological target: Gal6P(b1-4)GlcNAc
# Method in brief: as §1
# Gal6S(b1-3)GlcNAc = biological target: Gal6S(b1-3)GlcNAc
# Method in brief: as §1
# Gal6S(b1-3)GlcNAc6S = biological target: Gal6S(b1-3)GlcNAc6S
# Method in brief: as §1
binder,measurement,setting,value
B1,glycan array binding signal (z-score),[1],0.148
same,glycan array binding signal (z-score),[2],7.12
same,glycan array binding signal (z-score),[3],0.702
same,glycan array binding signal (z-score),[4],1.84
same,glycan array binding signal (z-score),[5],0.658
same,glycan array binding signal (z-score),[6],1.18
same,glycan array binding signal (z-score),[7],6.94
same,glycan array binding signal (z-score),[8],-0.072
same,glycan array binding signal (z-score),[9],-0.044
same,glycan array binding signal (z-score),[10],-0.395
same,glycan array binding signal (z-score),[11],0.072
same,glycan array binding signal (z-score),[12],-0.478
same,glycan array binding signal (z-score),[13],-0.155
same,glycan array binding signal (z-score),[14],0.895
same,glycan array binding signal (z-score),[15],-0.399
same,glycan array binding signal (z-score),[16],-0.174
same,glycan array binding signal (z-score),[17],0.182
same,glycan array binding signal (z-score),[18],-0.244
same,glycan array binding signal (z-score),[19],0.103
same,glycan array binding signal (z-score),Gal(b1-4)GlcNAc6P,-0.318
same,glycan array binding signal (z-score),Gal(b1-6)Gal,-0.445
same,glycan array binding signal (z-score),Gal3S(b1-3)GalNAc,0.048
same,glycan array binding signal (z-score),Gal3S(b1-3)GlcNAc,-0.126
same,glycan array binding signal (z-score),[20],-0.449
same,glycan array binding signal (z-score),Gal3S(b1-4)Glc,-0.637
same,glycan array binding signal (z-score),Gal3S(b1-4)Glc6S,-0.337
same,glycan array binding signal (z-score),Gal3S(b1-4)GlcNAc,-0.025
same,glycan array binding signal (z-score),[21],1.68
same,glycan array binding signal (z-score),[22],-0.085
same,glycan array binding signal (z-score),[23],-0.291
same,glycan array binding signal (z-score),Gal3S4S(b1-4)GlcNAc,-0.191
same,glycan array binding signal (z-score),Gal3S6S(b1-4)GlcNAc,-0.253
same,glycan array binding signal (z-score),Gal3S6S(b1-4)GlcNAc6S,-0.44
same,glycan array binding signal (z-score),Gal4S(b1-4)GlcNAc,-0.448
same,glycan array binding signal (z-score),Gal4S6S(b1-4)GlcNAc,-0.307
same,glycan array binding signal (z-score),Gal6P(b1-4)GlcNAc,-0.032
same,glycan array binding signal (z-score),Gal6S(b1-3)GlcNAc,0.638
same,glycan array binding signal (z-score),Gal6S(b1-3)GlcNAc6S,0.147

# Part of the list above, tab-delimited:
binder	measurement	setting	value
B1	glycan array binding signal (z-score)	[9]	-0.044
same	glycan array binding signal (z-score)	[10]	-0.395
same	glycan array binding signal (z-score)	[11]	0.072
same	glycan array binding signal (z-score)	[12]	-0.478
same	glycan array binding signal (z-score)	[13]	-0.155
same	glycan array binding signal (z-score)	[14]	0.895
same	glycan array binding signal (z-score)	[15]	-0.399
